Laboratory results published in article PMC8537625.
No constants are given. Whether binding was seen depends on the method and setting. In cells and extracts the contact can be indirect. Some entries that bind do so weakly or less than the wild type.

The chains behind the UniProt entries cited, without tags or fusion partners. Residues count along the entry.
UniProt Q7Z434, whole entry: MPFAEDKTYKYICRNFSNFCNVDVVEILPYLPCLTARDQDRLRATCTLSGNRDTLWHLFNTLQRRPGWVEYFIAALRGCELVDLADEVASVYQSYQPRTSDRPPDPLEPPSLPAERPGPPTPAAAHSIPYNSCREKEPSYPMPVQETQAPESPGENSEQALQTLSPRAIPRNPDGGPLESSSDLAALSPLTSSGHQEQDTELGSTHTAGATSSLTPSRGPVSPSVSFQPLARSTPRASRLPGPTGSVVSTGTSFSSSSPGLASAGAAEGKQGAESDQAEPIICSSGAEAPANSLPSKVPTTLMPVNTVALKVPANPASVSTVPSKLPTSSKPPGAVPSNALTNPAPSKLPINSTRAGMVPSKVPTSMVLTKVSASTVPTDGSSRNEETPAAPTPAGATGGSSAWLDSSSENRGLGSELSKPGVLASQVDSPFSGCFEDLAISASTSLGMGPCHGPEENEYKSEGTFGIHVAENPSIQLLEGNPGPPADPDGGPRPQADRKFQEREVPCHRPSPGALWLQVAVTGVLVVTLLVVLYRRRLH
UniProt P03496, 1-73: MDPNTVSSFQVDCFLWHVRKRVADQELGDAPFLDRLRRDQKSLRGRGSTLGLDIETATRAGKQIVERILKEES

Molecular target: HA-tagged wild-type MAVS (human) (UniProt Q7Z434)
Experiment: co-IP

truncated NS1 N ([change]–230) (from UniProt P03496 1-73) (domain or fragment)
binding: binds
